Taken from: PubChem BioAssay AID504808 (Drosophila RNAi Screening Center, 2011)

Test: 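Fly genes required to hold E2F transcription in check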 (primary screen)
Cells: Drosophila S2 cells
Reagent: long dsRNA against Drosophila genes
Detection: 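Firefly luciferase driven by E2F sites, normalised to Renilla luciferase on the same minimal promoter, measured by plate reader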
Direction: E2F firefly: higher = more E2F reporter activity; Renilla normaliser: higher = more normaliser reporter signal
Active means: 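Called active if the normalised E2F reporter went up by over 50%; the cutoff is arbitrary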
The screen tested about 21,000 reagents; below is a random part of those that have a named target and a result. Of all reagents, 18 (0.084%) got an active call. 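Raw counts without plate normalisation, one of two replicates; the ratio scores behind the calls were not deposited.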 A number with no mark means an inactive call. Names joined by + are all predicted targets of the reagent. No sequences are given here. Not stated in the record: the amount of reagent, the time to read-out.

Gene | amplicon | E2F firefly, rep 1 | Renilla normaliser, rep 1
twin | DRSC15259 | 75085 | 3555
twin | DRSC15831 | 1.28e5 | 6499
CG11041 | DRSC06025 | 1.45e5 | 5343
gcm | DRSC03536 | 1.42e5 | 5107
RhoGAPp190 | DRSC20097 | 1.57e5 | 5563
RhoGAPp190 | DRSC20099 | 1.44e5 | 5881
CG42240 | DRSC18097 | 7274 | 652
mav | DRSC17149 | 41829 | 3287
CG18596 | DRSC15355 | 71596 | 3438
CG44001 + CG33995 | DRSC00853 | 1.26e5 | 5186
CG44001 + CG33995 | DRSC02898 | 1.05e5 | 4181
CG14933 + CG42486 | DRSC02415 | 1.57e5 | 5900
Trs20 | DRSC10489 | 1.48e5 | 7617
eIF3f2 | DRSC04903 | 1.08e5 | 4416
Rad9 | DRSC11263 | 73268 | 3716
CG9667 | DRSC16535 | 96976 | 6835
Ran | DRSC20364 | 50890 | 4732
side-V | DRSC04188 | 1.08e5 | 4681
side-V | DRSC04189 | 52957 | 4740
Srrm234 | DRSC07955 | 1.31e5 | 3984
Srrm234 | DRSC08606 | 68859 | 3454
Nhe2 | DRSC03172 | 92237 | 4393
Nhe2 | DRSC03377 | 85518 | 4295
CG3301 | DRSC15471 | 78599 | 3529
aln | DRSC08240 | 79662 | 4090
nmdyn-D6 | DRSC20355 | 2.42e5 | 6583
CG7394 | DRSC10835 | 77091 | 4192
CG10651 | DRSC02086 | 98149 | 4378
CG11839 | DRSC14398 | 1.43e5 | 6070
Ir7d | DRSC18010 | 52352 | 3859
CG30432 | DRSC04833 | 1.29e5 | 5692
tho2 | DRSC00646 | 86265 | 3398
CG12105 | DRSC08255 | 85525 | 3971
CG16721 | DRSC18113 | 9203 | 788
Whamy | DRSC14574 | 1.41e5 | 6912
CG9517 (retired record) | DRSC20192 | 1.52e5 | 7022
CG9517 (retired record) | DRSC20193 | 1.61e5 | 6925
CG10822 | DRSC06005 | 1.47e5 | 5379
IFT54 | DRSC15469 | 1.22e5 | 5382
Upf2 | DRSC18218 | 1.15e5 | 5513
CG31997 | DRSC17105 | 80568 | 2123
CG17032 | DRSC10241 | 1.70e5 | 7640
Rab21 | DRSC20968 | 1.34e5 | 5223
CG31206 | DRSC13388 | 81097 | 2783
Plc21C | DRSC00773 | 86999 | 3762
Vha100-4 | DRSC16282 | 1.36e5 | 7357
AP-1mu | DRSC14089 | 74755 | 3810
speck | DRSC04608 | 82218 | 3309
wa-cup | DRSC12511 | 1.35e5 | 6887
Qsox2 | DRSC15287 | 71876 | 3889
CG34327 | DRSC19517 | 2.33e5 | 5373
NP15.6 | DRSC16756 | 1.36e5 | 6030
OS9 | DRSC02700 | 94994 | 4243
Cand1 | DRSC01992 | 71371 | 3104
CG30105 | DRSC05668 | 1.33e5 | 6440
CG7512 | DRSC10863 | 1.20e5 | 7109
CG10333 | DRSC02036 | 76010 | 3801
CG2930 | DRSC17730 | 1931 | 968
CR15821 | DRSC08481 | 1.03e5 | 4757
Ate1 | DRSC05925 | 83302 | 3253
CG32576 | DRSC19136 | 84053 | 2638
dpr14 | DRSC17767 | 8084 | 756
Eh | DRSC16660 | 1.11e5 | 5819
CG11368 | DRSC17778 | 1.03e5 | 5791
CG13560 | DRSC04198 | 1.05e5 | 4377
CG11983 | DRSC14458 | 1.39e5 | 7604
CG7420 | DRSC00704 | 79541 | 3088
CG3436 | DRSC00605 | 69705 | 3391
sbm | DRSC20185 | 2.27e5 | 5780
alphaTub84D | DRSC12623 | 1.06e5 | 5718
Or85e (retired record) | DRSC16768 | 1.34e5 | 5707
Blos1 | DRSC05970 | 1.03e5 | 3593
Saf-B | DRSC16167 | 74148 | 3873
Gpat4 | DRSC04345 | 84178 | 4700
CG1273 | DRSC08291 | 93480 | 3892
CG7488 | DRSC16250 | 1.12e5 | 5479
CG9483 | DRSC03226 | 81891 | 3549
G6P | DRSC00414 | 1.49e5 | 4684
RpS25 | DRSC16837 | 1.40e5 | 7527
dpr12 | DRSC04814 | 1.18e5 | 5611
dpr12 | DRSC04863 | 1.17e5 | 4887
dpr12 | DRSC04892 | 1.20e5 | 5025
Hexim | DRSC15490 | 73089 | 3687
CTCF | DRSC11004 | 72341 | 4099

4 entries from above, showing only “E2F firefly, rep 1”.
CG30432 [DRSC04833]	1.29e5
tho2 [DRSC00646]	86265
CG12105 [DRSC08255]	85525
CG16721 [DRSC18113]	9203
